According to the supplement of paper PMC10849652:
The list shows a part of the results.

Protein sequences, listed by entry. Tags and fused reporters are not part of them. Lines headed by an entry give the natural chain unless they say otherwise; changes in a name come on top.
UniProt Q9H5J4: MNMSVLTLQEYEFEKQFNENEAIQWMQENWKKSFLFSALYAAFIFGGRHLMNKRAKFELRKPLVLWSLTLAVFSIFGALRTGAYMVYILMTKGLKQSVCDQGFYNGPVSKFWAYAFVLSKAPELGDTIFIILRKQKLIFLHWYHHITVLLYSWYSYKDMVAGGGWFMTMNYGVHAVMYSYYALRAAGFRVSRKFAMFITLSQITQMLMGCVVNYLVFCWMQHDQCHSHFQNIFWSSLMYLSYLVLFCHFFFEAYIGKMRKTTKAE
UniProt O15197: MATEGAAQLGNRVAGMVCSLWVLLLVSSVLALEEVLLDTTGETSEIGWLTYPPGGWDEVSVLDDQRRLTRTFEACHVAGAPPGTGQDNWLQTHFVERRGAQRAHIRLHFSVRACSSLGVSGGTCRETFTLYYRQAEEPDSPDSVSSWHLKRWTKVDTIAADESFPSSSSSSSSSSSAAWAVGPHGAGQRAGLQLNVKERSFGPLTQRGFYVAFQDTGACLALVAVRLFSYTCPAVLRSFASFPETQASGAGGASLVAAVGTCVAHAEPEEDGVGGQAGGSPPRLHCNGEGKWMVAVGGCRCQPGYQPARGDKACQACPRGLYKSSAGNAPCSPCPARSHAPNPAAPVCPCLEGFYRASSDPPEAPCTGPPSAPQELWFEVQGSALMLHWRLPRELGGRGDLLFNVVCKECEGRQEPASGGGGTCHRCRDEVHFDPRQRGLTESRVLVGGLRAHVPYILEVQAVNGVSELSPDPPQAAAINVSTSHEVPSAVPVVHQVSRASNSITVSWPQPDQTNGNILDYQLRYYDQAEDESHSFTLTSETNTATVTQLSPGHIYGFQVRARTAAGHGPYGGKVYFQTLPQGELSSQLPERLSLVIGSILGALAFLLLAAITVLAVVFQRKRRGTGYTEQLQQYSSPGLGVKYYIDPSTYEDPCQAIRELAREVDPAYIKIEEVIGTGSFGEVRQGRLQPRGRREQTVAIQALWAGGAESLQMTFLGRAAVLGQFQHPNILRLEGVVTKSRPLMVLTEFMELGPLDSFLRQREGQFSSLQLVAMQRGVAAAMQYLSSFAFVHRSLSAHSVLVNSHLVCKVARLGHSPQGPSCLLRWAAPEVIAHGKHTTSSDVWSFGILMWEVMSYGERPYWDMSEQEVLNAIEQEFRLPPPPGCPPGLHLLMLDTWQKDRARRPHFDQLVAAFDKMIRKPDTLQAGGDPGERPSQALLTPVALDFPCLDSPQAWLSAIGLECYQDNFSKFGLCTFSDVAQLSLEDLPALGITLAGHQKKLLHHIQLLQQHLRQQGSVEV
UniProt Q8TE68: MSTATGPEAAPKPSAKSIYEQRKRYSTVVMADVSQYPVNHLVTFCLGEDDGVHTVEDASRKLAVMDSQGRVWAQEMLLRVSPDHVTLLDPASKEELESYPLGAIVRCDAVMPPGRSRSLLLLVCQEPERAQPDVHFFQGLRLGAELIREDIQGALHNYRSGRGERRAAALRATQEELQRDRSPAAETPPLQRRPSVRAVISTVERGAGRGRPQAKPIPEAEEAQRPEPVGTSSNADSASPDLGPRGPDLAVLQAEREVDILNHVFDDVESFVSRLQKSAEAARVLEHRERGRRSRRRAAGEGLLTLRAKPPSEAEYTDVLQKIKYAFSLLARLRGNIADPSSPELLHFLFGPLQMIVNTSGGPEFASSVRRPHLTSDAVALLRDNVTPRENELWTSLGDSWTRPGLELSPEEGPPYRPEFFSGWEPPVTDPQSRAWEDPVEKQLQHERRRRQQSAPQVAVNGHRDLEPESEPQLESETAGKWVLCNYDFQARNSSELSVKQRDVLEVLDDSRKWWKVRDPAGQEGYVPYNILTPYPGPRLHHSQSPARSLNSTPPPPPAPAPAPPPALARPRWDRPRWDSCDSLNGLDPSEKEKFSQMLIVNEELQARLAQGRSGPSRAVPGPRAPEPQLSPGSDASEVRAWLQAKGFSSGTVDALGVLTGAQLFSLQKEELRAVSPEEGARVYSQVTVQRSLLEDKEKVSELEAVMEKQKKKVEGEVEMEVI
UniProt Q8N5X7: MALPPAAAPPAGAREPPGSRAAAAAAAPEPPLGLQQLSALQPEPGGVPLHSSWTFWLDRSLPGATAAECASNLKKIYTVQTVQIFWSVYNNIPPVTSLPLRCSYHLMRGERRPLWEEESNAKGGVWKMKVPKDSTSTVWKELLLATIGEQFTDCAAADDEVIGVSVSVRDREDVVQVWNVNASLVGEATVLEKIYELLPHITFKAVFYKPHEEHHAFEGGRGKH
UniProt Q9NQZ7: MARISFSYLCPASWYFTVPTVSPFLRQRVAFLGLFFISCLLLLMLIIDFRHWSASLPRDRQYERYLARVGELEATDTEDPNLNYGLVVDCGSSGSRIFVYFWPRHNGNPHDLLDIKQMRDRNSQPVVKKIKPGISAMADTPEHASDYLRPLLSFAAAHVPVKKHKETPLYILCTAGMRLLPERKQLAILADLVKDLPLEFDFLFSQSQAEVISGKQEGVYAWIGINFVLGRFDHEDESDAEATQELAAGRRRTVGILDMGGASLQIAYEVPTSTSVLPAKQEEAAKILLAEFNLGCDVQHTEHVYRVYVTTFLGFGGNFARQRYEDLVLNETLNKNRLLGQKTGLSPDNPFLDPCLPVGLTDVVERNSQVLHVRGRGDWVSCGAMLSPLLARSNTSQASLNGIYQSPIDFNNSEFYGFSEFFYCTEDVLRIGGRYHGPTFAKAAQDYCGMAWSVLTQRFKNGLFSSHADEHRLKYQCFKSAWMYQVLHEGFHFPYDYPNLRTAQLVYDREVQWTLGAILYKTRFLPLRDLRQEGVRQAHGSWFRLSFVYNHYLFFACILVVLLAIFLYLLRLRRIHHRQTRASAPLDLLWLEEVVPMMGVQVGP
UniProt O60516: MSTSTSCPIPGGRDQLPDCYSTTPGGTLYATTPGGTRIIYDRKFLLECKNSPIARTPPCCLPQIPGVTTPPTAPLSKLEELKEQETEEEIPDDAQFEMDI
UniProt Q04637, whole entry, looked up: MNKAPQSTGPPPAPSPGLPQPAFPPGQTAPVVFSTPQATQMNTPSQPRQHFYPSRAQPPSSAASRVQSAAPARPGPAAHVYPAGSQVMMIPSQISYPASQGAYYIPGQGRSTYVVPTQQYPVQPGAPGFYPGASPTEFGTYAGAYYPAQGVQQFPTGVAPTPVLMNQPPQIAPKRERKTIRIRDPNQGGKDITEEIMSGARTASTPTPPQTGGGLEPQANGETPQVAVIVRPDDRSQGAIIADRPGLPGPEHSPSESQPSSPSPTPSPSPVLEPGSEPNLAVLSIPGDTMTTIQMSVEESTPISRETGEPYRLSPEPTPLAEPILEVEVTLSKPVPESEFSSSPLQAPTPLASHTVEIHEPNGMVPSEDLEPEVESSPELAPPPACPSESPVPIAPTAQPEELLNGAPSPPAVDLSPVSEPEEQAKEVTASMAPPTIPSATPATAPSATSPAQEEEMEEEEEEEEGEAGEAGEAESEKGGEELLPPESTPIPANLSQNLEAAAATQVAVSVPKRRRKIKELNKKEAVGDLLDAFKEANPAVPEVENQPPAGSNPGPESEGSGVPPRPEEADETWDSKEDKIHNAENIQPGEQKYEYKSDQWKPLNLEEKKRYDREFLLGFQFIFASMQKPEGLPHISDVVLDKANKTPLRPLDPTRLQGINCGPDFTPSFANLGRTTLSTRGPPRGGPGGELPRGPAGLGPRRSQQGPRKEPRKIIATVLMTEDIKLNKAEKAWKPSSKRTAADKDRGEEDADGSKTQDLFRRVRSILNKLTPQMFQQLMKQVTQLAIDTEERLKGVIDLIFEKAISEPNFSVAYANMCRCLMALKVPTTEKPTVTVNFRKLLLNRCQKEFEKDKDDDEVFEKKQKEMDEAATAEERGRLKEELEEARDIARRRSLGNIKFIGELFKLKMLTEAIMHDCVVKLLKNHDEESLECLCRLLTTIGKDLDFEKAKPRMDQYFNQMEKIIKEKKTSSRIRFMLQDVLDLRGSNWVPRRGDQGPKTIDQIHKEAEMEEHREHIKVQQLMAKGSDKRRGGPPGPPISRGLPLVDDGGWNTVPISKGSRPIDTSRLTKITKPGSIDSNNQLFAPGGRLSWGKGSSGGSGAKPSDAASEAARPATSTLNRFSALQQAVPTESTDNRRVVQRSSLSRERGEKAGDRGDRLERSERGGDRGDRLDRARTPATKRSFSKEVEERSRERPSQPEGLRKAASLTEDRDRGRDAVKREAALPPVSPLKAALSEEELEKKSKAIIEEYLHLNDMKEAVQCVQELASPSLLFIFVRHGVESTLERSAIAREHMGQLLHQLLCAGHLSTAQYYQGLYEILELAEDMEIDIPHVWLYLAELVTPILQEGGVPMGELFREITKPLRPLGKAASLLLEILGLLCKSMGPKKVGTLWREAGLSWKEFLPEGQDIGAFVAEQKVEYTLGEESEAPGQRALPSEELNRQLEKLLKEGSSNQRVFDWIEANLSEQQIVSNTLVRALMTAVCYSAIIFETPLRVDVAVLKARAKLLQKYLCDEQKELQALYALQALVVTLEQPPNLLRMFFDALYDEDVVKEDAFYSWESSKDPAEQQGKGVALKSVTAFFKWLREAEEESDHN
UniProt Q05BV3: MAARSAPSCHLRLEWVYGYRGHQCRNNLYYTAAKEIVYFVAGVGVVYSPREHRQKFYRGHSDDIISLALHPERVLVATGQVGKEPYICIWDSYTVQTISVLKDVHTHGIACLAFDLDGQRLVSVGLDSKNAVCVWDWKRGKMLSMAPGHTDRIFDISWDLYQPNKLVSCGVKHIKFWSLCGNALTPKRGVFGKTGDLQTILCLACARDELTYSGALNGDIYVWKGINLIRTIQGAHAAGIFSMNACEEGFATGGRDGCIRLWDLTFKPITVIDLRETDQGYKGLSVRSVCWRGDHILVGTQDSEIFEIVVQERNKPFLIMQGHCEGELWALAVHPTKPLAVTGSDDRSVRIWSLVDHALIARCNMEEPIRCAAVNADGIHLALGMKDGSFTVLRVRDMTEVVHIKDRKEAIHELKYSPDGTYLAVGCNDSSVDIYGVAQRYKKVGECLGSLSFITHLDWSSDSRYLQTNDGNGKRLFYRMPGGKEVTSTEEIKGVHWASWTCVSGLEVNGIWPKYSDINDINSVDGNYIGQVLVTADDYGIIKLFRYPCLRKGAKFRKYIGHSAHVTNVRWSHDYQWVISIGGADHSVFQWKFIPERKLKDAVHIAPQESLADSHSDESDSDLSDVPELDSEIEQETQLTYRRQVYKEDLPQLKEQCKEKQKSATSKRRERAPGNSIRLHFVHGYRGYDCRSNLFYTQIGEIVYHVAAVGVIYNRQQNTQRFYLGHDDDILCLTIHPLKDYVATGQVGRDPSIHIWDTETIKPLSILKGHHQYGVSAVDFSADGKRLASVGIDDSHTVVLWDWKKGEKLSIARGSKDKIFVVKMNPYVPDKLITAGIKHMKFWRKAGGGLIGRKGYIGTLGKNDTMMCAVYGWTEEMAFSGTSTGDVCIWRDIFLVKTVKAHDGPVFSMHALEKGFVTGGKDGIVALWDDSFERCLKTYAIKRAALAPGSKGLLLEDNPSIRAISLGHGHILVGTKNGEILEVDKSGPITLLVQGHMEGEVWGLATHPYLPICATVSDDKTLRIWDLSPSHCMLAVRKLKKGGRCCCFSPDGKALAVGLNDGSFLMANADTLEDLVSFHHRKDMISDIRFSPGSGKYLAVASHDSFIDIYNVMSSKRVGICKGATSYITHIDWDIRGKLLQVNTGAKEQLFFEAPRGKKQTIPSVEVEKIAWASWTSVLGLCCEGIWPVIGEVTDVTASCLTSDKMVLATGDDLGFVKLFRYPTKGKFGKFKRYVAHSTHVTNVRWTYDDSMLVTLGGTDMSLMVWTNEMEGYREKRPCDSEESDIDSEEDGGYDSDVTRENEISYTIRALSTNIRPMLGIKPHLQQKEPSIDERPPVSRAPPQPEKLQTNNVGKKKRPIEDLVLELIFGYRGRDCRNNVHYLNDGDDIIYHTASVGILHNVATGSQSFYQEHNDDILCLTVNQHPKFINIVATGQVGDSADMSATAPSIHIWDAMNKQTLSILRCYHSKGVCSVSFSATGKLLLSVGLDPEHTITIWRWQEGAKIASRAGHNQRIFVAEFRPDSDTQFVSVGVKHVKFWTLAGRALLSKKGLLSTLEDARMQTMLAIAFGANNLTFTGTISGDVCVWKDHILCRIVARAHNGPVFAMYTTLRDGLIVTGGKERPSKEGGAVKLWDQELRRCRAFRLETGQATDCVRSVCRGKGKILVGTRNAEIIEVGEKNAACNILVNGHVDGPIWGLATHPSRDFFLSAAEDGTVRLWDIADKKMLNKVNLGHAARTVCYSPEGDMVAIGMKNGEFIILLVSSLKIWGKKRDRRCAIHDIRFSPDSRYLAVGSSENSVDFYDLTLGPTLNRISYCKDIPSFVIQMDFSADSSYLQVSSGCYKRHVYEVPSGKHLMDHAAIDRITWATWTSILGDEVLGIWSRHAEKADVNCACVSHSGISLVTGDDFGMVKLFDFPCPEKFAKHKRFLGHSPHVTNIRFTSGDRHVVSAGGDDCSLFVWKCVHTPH

What was measured:
Assay in all cases: log2 fold change, soluble protein after heating vs DMSO (PISA); higher = thermal stabilisation; K562 lysate, 10 uM; active = over 0.2 and 3.5 SD of the protein, either way, in both replicates (recomputed)
lapatinib = compound: CS(=O)(=O)CCNCc1ccc(-c2ccc3ncnc(Nc4ccc(OCc5cccc(F)c5)c(Cl)c4)c3c2)o1 [lapatinib]
How it was run: (§1)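 Soluble protein was defined as the supernatant remaining after 21,000xg for 90 min, following pooling of heated aliquots and adjustment to 0.5% NP-40 at 4°C. Before that, crude K562 extract at 1 mg/mL protein in PBS pH 7.4 with 1 mM MgCl2 was treated with 10 μM compound for 30 min and heated for 3 min across 48°C-58°C. Quantification used TMTpro 16plex LC-MS/MS with channel sums equalised, and values are log-two fold changes in thermal stability relative to solvent controls from duplicates.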

crizotinib = compound: C[C@@H](Oc1cc(-c2cnn(C3CCNCC3)c2)cnc1N)c1c(Cl)ccc(F)c1Cl [crizotinib]
How it was run: as §1

[1] = compound: C[C@H](C1=CC=C(C=C1)C(=O)NC2=C3C=CNC3=NC=C2)N
How it was run: as §1

duvelisib = compound: C[C@H](Nc1ncnc2nc[nH]c12)c1cc2cccc(Cl)c2c(=O)n1-c1ccccc1 [duvelisib]
How it was run: as §1

gandotinib = compound: Cc1cc(Nc2cc(CN3CCOCC3)c3nc(C)c(Cc4ccc(Cl)cc4F)n3n2)n[nH]1 [gandotinib]
How it was run: as §1

doramapimod = compound: Cc1ccc(-n2nc(C(C)(C)C)cc2NC(=O)Nc2ccc(OCCN3CCOCC3)c3ccccc23)cc1 [doramapimod]
How it was run: as §1

[2] = compound: Cc1cccc(CC(=O)N2CCc3c2ccc(-c2cn(C)c4ncnc(N)c24)c3F)n1
How it was run: as §1

nilotinib = compound: Cc1cn(-c2cc(NC(=O)c3ccc(C)c(Nc4nccc(-c5cccnc5)n4)c3)cc(C(F)(F)F)c2)cn1 [nilotinib]
How it was run: as §1

[3] = compound: Cc1nc(Nc2n[nH]c3c2CN(C(=O)N[C@H](CN(C)C)c2ccccc2)C3(C)C)c2sccc2n1
How it was run: as §1

dasatinib = compound: Cc1nc(Nc2ncc(C(=O)Nc3c(C)cccc3Cl)s2)cc(N2CCN(CCO)CC2)n1 [dasatinib]
How it was run: as §1

[4] = compound: Cc1ncc(-c2ccnc(Nc3ccc(S(C)(=O)=O)cc3)n2)n1C(C)C
How it was run: as §1

[5] = compound: Cn1cc(-c2ccc3c(c2)CCN3C(=O)Cc2cccc(C(F)(F)F)c2)c2c(N)ncnc21
How it was run: as §1

quisinostat = compound: Cn1cc(CNCC2CCN(c3ncc(C(=O)NO)cn3)CC2)c2ccccc21 [quisinostat]
How it was run: as §1

tipifarnib = compound: Cn1cncc1[C@@](N)(c1ccc(Cl)cc1)c1ccc2c(c1)c(-c1cccc(Cl)c1)cc(=O)n2C [tipifarnib]
How it was run: as §1

[6] = compound: NC(=O)Nc1cc(-c2cccc(F)c2)sc1C(=O)N[C@H]1CCCNC1
How it was run: as §1

[7] = compound: NC(=O)c1cnc(N[C@@H]2CCCC[C@@H]2N)nc1Nc1cccc(-n2nccn2)c1
How it was run: as §1

[8] = compound: NC1(c2ccc(-c3nc4ccn5c(=O)[nH]nc5c4cc3-c3ccccc3)cc2)CCC1
How it was run: as §1

pictilisib = compound: CS(=O)(=O)N1CCN(Cc2cc3nc(-c4cccc5[nH]ncc45)nc(N4CCOCC4)c3s2)CC1 [pictilisib]
How it was run: as §1

bafetinib = compound: Cc1ccc(NC(=O)c2ccc(CN3CC[C@H](N(C)C)C3)c(C(F)(F)F)c2)cc1Nc1nccc(-c2cncnc2)n1 [bafetinib]
How it was run: as §1

tozasertib = compound: Cc1cc(Nc2cc(N3CCN(C)CC3)nc(Sc3ccc(NC(=O)C4CC4)cc3)n2)n[nH]1 [tozasertib]
How it was run: as §1

Measured: log2 fold change

ELOVL6 (UniProt Q9H5J4)
inactive: lapatinib -0.306 | crizotinib -0.213 | [1] -0.09 | duvelisib -0.132 | gandotinib 0.202 | doramapimod -0.057 | [2] 0.2 | nilotinib -0.001 | [3] -0.077 | dasatinib -0.198 | [4] -0.043 | [5] 0.169 | quisinostat 0.093 | tipifarnib -0.103 | [6] 0.19 | [7] -0.307 | [8] 0.076

EIF3G (UniProt K7ENA8)
inactive: lapatinib -0.141 | pictilisib -0.001 | [1] -0.009 | duvelisib -0.016 | gandotinib -0.153 | bafetinib 0.008 | [2] 0.087 | dasatinib 0.017 | [5] -0.042 | [7] -0.34

EPHB6 (UniProt O15197)
inactive: [1] 0.139 | gandotinib -0.206 | tozasertib -0.034 | [2] -0.02 | nilotinib 0.058 | [3] -0.028 | [4] -0.037 | tipifarnib 0.016

EPS8L1 (UniProt Q8TE68)
inactive: pictilisib -0.119 | crizotinib -0.04 | [1] -0.001 | duvelisib 0.076 | gandotinib 0.041 | tozasertib 0.133 | doramapimod 0.22 | bafetinib -0.006 | [2] 0.162 | dasatinib 0.038 | [5] -0.058 | quisinostat -0.065 | [6] 0.046

EIF4E3 (UniProt Q8N5X7)
inactive: crizotinib 0.107 | [1] -0.414 | gandotinib 0.184 | tozasertib 0.07 | doramapimod -0.086 | [2] -0.118 | nilotinib 0 | [3] -0.052 | [4] -0.098 | quisinostat 0.11 | tipifarnib -0.246 | [6] 0.037 | [8] -0.051

EIF4G3, A0A0A0MSA7
inactive: duvelisib 0.007 | dasatinib -0.054 | [5] -0.018

Looked up one by one from above, 2 records:
EIF4E3 (UniProt Q8N5X7)
inactive: crizotinib 0.107 | [1] -0.414 | gandotinib 0.184 | tozasertib 0.07 | doramapimod -0.086 | [2] -0.118 | nilotinib 0 | [3] -0.052 | [4] -0.098 | quisinostat 0.11 | tipifarnib -0.246 | [6] 0.037 | [8] -0.051

EPHB6 (UniProt O15197)
inactive: [1] 0.139 | gandotinib -0.206 | tozasertib -0.034 | [2] -0.02 | nilotinib 0.058 | [3] -0.028 | [4] -0.037 | tipifarnib 0.016

Next records

EIF2B5, A0A3B3ITK8
inactive: lapatinib -0.108 | nilotinib -0.455 | [3] 0.16 | [4] -0.134 | tipifarnib 0.313 | [7] -0.054

ENTPD7 (UniProt Q9NQZ7)
inactive: lapatinib 0.082 | [1] -0.121 | gandotinib -0.096 | tozasertib 0.023 | [2] 0.213 | nilotinib -0.094 | [3] -0.27 | [4] -0.044 | tipifarnib -0.094 | [7] 0.069

EIF4EBP3 (UniProt O60516)
inactive: [8] 0.047

EIF4G1 isoform 5 (UniProt Q04637)
inactive: lapatinib 0.011 | nilotinib -0.108 | [3] -0.005 | [4] 0.121 | tipifarnib 0.05 | [7] 0.125

EML5 isoform 5 (UniProt Q05BV3)
inactive: lapatinib -0.032 | crizotinib -0.062 | [1] -0.098 | duvelisib -0.003 | gandotinib 0.065 | doramapimod -0.025 | [2] 0.059 | nilotinib -0.007 | [3] -0.047 | dasatinib -0.115 | [4] 0.009 | [5] 0.157 | quisinostat -0.176 | tipifarnib -0.026 | [6] 0.08 | [7] 0.006 | [8] -0.02

EPB41L2 isoform 4 (UniProt O43491)
inactive: lapatinib 0.009 | pictilisib 0.036 | [1] -0.122 | gandotinib 0.169 | bafetinib -0.073 | [2] 0.046 | nilotinib -0.016 | [3] -0.052 | [4] 0.049 | tipifarnib 0.083 | [7] 0.027

EPS15L1 (UniProt M0QY01)
inactive: lapatinib 0.014 | [1] -0.036 | duvelisib -0.02 | gandotinib 0.073 | tozasertib -0.07 | [2] -0.027 | dasatinib -0.067 | [5] -0.003 | [7] -0.026 | [8] -0.026

EIF4A1 (UniProt J3KS25)
inactive: tozasertib -0.12
